This data set is described as follows: Pharmacokinetic study in healthy adults of single vs. multiple oral doses of colchicine tablets (Example 1).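 Further: Single-dose and multiple-dose periods given to the same subjects, with a 14-day washout between the two periods.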 The class given is in vivo, human. Particulars: after colchicine 0.6 mg single and multiple doses; LOQ 0.2 ng/mL; 13 subjects.

Regarding `COc1c(O)cc2c(c1OC)-c1ccc(OC)c(=O)cc1[C@@H](NC(C)=O)CC2` [3-O-demethylcolchicine], the metabolite plasma concentration result was “only one sample from 1 subject (of 13 subjects) had a detectable”.

The values are drawn from US20110046227A1, “METHODS FOR CONCOMITANT ADMINISTRATION OF […] A SECOND ACTIVE AGENT” (MUTUAL PHARMACEUTICAL COMPANY, INC., priority 2009, published 2011).
